# Experimental data taken from PubChem BioAssay AID743255 (National Center for Advancing Translational Sciences (NCATS), 2014).
# The chains behind the UniProt entries cited, without tags or fusion partners. Where a name states a change or a piece, a line headed by the entry shows the natural chain unless it says otherwise.
# UniProt O94782: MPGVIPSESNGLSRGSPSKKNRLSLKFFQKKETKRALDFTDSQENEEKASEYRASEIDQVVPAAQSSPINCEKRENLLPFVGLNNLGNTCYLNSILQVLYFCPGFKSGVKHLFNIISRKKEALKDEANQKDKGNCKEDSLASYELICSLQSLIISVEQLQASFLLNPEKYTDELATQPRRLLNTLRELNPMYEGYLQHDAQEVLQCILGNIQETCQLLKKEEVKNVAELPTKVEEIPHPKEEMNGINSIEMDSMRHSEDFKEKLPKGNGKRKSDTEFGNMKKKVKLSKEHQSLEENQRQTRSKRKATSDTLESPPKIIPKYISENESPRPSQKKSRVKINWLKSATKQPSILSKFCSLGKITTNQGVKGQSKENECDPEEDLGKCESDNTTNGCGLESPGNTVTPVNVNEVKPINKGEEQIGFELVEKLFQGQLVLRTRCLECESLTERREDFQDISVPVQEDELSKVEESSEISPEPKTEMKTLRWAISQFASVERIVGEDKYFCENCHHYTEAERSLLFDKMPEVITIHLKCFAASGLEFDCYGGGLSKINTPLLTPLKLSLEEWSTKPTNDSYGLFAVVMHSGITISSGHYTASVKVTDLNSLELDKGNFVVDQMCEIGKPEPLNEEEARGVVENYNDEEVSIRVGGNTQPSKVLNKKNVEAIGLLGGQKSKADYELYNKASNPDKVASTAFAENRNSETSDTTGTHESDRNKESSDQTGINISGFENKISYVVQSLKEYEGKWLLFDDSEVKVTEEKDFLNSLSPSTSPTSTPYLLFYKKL
# About 910 (0.23%) of roughly 390,000 compounds were called active. This list was built around the results that the source calls inconclusive (neither active nor inactive); the mix of calls is not that of the screen. Calls follow the shape of the dose curve; as a rule, active = well fitted inhibition curve with a large enough effect; inconclusive = small, poorly fitted or top-dose-only effect; inactive = no such curve, though single readings can be large or run the other way. Where the call is inconclusive, the potency comes from a doubtful curve fit.
# Target: Ubiquitin carboxyl-terminal hydrolase 1 (Homo sapiens) (UniProt O94782)
# Assay: Inhibitors of USP1/UAF1: Primary Screen; also: nearly all actives have a fitted effect of over 60% in size
# Details: recombinant USP1/UAF1, Ub-Rhodamine cleavage fluorescence; activity change, negative = inhibition: at 57.1 µM (top of the series)
# Outline: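 USP1/UAF1 complex at 1 nM was preincubated with compound for 15 min at room temperature, then Ub-Rho substrate (150nM final) was added. Fluorescence (480/540 nm) was read kinetically, 6 reads every 60 seconds.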
# % is scaled to controls: 0 for no effect and ±100 for the full control effect; potency is read from the fitted curve at half-maximal effect.
Compound,Potency,"activity change, negative = inhibition"
CCCC(c1nnnn1Cc1ccc(F)cc1)N1CCN(CC)CC1 (stereo not drawn),"inconclusive: 39.8 µM [inhibitor, partial curve, poor fit]",–
CCN(CC)C(=O)c1ccc(-c2nnc(Nc3ccc(O)cc3)c3ccccc23)cc1,–,inactive: -21.6%
Oc1ccc(C2=NNC(c3ccc(O)cc3)=NN2)cc1,"inconclusive: 0.631 µM [inhibitor, full curve, poor fit]",–
O=C1Nc2ccc(Br)cc2C12NNc1ccccc1O2 (stereo not drawn),–,inactive: -22.6%
NC(=O)CC(NC(=O)Cc1ccc(Cl)cc1)c1ccc(NCC2CC2)c([N+](=O)[O-])c1 (stereo not drawn),"inconclusive: 0.282 µM [inhibitor, full curve, poor fit]",–
O=c1[nH]n2c(=O)c3c([nH]c2c1N=Nc1cccc(Cl)c1)CCCC3,"inconclusive: 28.2 µM [inhibitor, partial curve]",–
CN1C[C@@H]2[C@@H]3C(=O)N(Cc4ccccc4)C(=O)[C@@H]3[C@](C)(C1=O)N2C(=O)c1ccc(Cl)cc1,"inconclusive: 50.1 µM [inhibitor, partial curve, poor fit]",–
COc1cc(/C=C/C(=O)N2c3ccccc3Sc3ccc(C(F)(F)F)cc32)cc(OC)c1OC,"inconclusive: 28.2 µM [inhibitor, partial curve]",–
CCN1CCN(C(c2ccccc2Cl)c2c(O)cc(C)n(Cc3ccco3)c2=O)CC1 (stereo not drawn),"inconclusive: 5.62 µM [inhibitor, partial curve]",–
CC1CCCCN1c1ncnc2ccccc12 (stereo not drawn),"inconclusive: 0.355 µM [inhibitor, full curve, poor fit]",–
CCN(CC)C(=O)CCc1nnc(Cc2cccc(C(F)(F)F)c2)o1,–,inactive: -2.04%
O=C(Nc1ccc(N2CCOCC2)cc1)Nc1ccc(Cl)c(Cl)c1,–,inactive: -9.96%
COc1ccc(/C=N/NC(=O)c2[nH]nc3c2CCc2ccccc2-3)cc1OC,"inconclusive: 35.5 µM [inhibitor, partial curve]",–
Cc1cc(NC(=O)c2ccc(Cn3nc(C)c(Br)c3C)o2)no1,"inconclusive: 0.316 µM [inhibitor, full curve, poor fit]",–
CCOC(=O)C1CCCN(C(=O)Cn2sc3nc(C)cc(C)c3c2=O)C1 (stereo not drawn),–,inactive: 1.84%
CN(C)S(=O)(=O)N1CCN(c2ccc([N+](=O)[O-])c(N3CCCCC3)c2)CC1,"inconclusive: 44.7 µM [inhibitor, partial curve, poor fit]",–
Cc1c(C)c2cc(Cl)c(O)c(CN3CCCCC3)c2oc1=O,–,inactive: -2.29%
COc1cc(/C=C(\C#N)C(=O)N2CCOCC2)ccc1OCc1ccccc1,"inconclusive: 20 µM [inhibitor, partial curve]",–
COc1ccc(OC)c(NC(=O)CCNS(=O)(=O)c2ccc3c(c2)oc(=O)n3C)c1,"inconclusive: 70.8 µM [inhibitor, partial curve, poor fit]",–
CCOc1cc(/C=N/O)ccc1OCc1ccc([N+](=O)[O-])cc1,–,inactive: -12.6%
OCCn1c(-c2ccc3c(c2)OCO3)csc1=Nc1ccccc1,–,inactive: -20.1%

Compound,Potency,"activity change, negative = inhibition"
CCc1ccc(Nc2sc(C(=O)c3ccc(F)cc3)c(N)c2S(=O)(=O)c2ccccc2)cc1,"inconclusive: 20 µM [inhibitor, partial curve, poor fit]",–
O=c1[nH]c(-c2ccc(O)cc2)nc2scc(-c3cccs3)c12,–,inactive: -19.8%
Cc1ccccc1CN1[C@@H](CC2CCCCC2)COCCS1(=O)=O,–,inactive: 5.29%
O=C1C=C(c2cccc3c2Oc2ccccc2S3)C[C@@H](c2ccc(Cl)cc2)C1,"inconclusive: 44.7 µM [inhibitor, partial curve, poor fit]",–
CC(=O)OCC(=O)[C@@]1(O)CC[C@H]2[C@@H]3C[C@H](C)C4=CC(=O)C=C[C@]4(C)[C@H]3[C@@H](O)C[C@@]21C,"inconclusive: 0.282 µM [inhibitor, full curve]",–
COc1ccccc1/C=C/C=C1\Oc2c(ccc(O)c2CN(C)C)C1=O,active: 25.1 µM,–
C#C[C@]1(O)CCC2C3CCC4=CC(=O)CC[C@@H]4C3CC[C@@]21C (stereo partly drawn),"inconclusive: 1.78 µM [inhibitor, full curve]",–
Cc1cc(NC(=O)CCCSc2nc(-c3ccco3)cc(C(F)(F)F)n2)n(-c2ccccc2)n1,"inconclusive: 35.5 µM [inhibitor, partial curve]",–
C=CCN1c2ccccc2[C@]23C[C@@H](C(=O)OC)N=C2NC(C(=O)OC)=C(C(=O)OC)[C@H]13,–,inactive: -33.3%
Cc1nc2cc(NCc3ccccc3O)ccc2n1Cc1ccccc1,–,inactive: -8.99%
O=C(CCN1C(=O)/C(=C/c2cccs2)SC1=S)Nc1ccccn1,"inconclusive: 35.5 µM [inhibitor, partial curve, poor fit]",–
N#CC(C#N)=C1C=C2C=C(N3CCOCC3)CCC2CC1 (stereo not drawn),active: 3.98 µM,–
Cc1nc(-c2nnc(SCC(=O)Nc3cc(Cl)cc(Cl)c3)n2C)cs1,"inconclusive: 10 µM [inhibitor, partial curve]",–
CC(=O)c1cccc(NC(=O)Cn2nc(C(F)(F)F)c3c2CCC3)c1,–,inactive: -23.6%
N#C/C(=C\c1ccc(O)c([N+](=O)[O-])c1)c1nc2ccccc2s1,"inconclusive: 17.8 µM [inhibitor, partial curve, poor fit]",–
O=C(OCc1ccccc1)N1CCC2CC1c1cc(-c3ccccc3)ccc12 (stereo not drawn),"inconclusive: 44.7 µM [inhibitor, partial curve, poor fit]",–
CCOc1c(O)ccc(/C=C2\SC(=S)NC2=O)c1[N+](=O)[O-],"inconclusive: 44.7 µM [inhibitor, partial curve, poor fit]",–
COc1ccccc1-c1nn2c(=O)cc(CN3CCN(C(=O)/C=C/c4ccccc4)CC3)nc2s1,–,inconclusive: -29.5% [inhibitor]
CCN1CCN(c2cc(C)c3cc(NC(=S)NCCCN4CCc5ccccc5C4)ccc3n2)CC1,"inconclusive: 0.224 µM [inhibitor, full curve, poor fit]",–
CCN1C(=O)/C(=C/C2=Cc3ccccc3OC2C)SC1=S (stereo not drawn),"inconclusive: 35.5 µM [inhibitor, partial curve, poor fit]",–
Cc1ccc(S[C@@H](CCN2CC[C@H](O)CCC2=O)c2ccccc2)cc1,–,inactive: -19.5%

Compound,Potency,"activity change, negative = inhibition"
Nc1c(Cl)cc(C2=NCCn3nc4ccccc4c32)cc1Cl,"inconclusive: 44.7 µM [inhibitor, partial curve, poor fit]",–
O=C(CSc1nc2c(c(=O)n1-c1ccccc1)SCC2)N1CCOCC1,"inconclusive: 44.7 µM [inhibitor, partial curve, poor fit]",–
CCn1c(Cc2ccccc2)nnc1SCC(=O)c1cccc([N+](=O)[O-])c1,"inconclusive: 0.447 µM [inhibitor, full curve, poor fit]",–
CCOc1ccc(NC(=O)Cn2c(=O)n(CCCCC(=O)NCc3ccc4c(c3)OCO4)c(=O)c3ccccc32)cc1,"inconclusive: 0.316 µM [inhibitor, full curve]",–
CCCCCn1c(CNC(=O)c2ccccc2)nc2ccccc21,"inconclusive: 0.282 µM [inhibitor, full curve, poor fit]",–
CSCc1ccc(C(=O)NC2CC(C)(C)Cc3c2cnn3-c2ccc(F)cc2)o1 (stereo not drawn),"inconclusive: 79.4 µM [inhibitor, partial curve, poor fit]",–
CCOc1ccc(C(=O)Nc2ccc(N3CCN(C)CC3)cc2)cc1,"inconclusive: 10 µM [inhibitor, partial curve, poor fit]",–
C=CCN1C(=O)c2ccc(C(=O)N(CC(C)C)c3c(N)n(CCCC)c(=O)[nH]c3=O)cc2C1=O,"inconclusive: 11.2 µM [inhibitor, full curve, poor fit]",–
Cc1cc2nc(N=C(N)N)nc(C)c2cc1C,–,inactive: -1.22%
COc1cccc(C(=O)N2CCN(C(=O)C3COc4ccccc4O3)CC2)c1 (stereo not drawn),–,inactive: -12.5%
CCCCOC(=O)CSc1nnc(-c2ccccc2)o1,"inconclusive: 5.01 µM [inhibitor, partial curve]",–
COc1cc(OC)c(NC(=O)CCCn2nc(C)c3sc4ccccc4c3c2=O)cc1Cl,"inconclusive: 31.6 µM [inhibitor, partial curve]",–
COC(=O)/C(=C(O)\C=C\c1ccccc1[N+](=O)[O-])c1nc2ccccc2[nH]1,"inconclusive: 56.2 µM [inhibitor, single point]",–
CC1=C(c2ccc(C)c(C)c2)S(=O)(=O)N=C1N1CCC(C(=O)NCCc2ccc(Cl)cc2)CC1,"inconclusive: 11.2 µM [inhibitor, full curve]",–
Cc1ccc(C)c(SCC(=O)OCC(=O)Nc2ncc(C(F)(F)F)cc2Cl)c1,"inconclusive: 35.5 µM [inhibitor, single point]",–
CCN(CC(=O)Nc1c(F)cccc1F)C(=O)CCCN1C(=O)c2cccc3cccc(c23)C1=O,"inconclusive: 0.251 µM [inhibitor, full curve, poor fit]",–
O=C(CN1CCCN(Cc2ccc(Cl)cc2)S1(=O)=O)Nc1ccccc1F,"inconclusive: 0.251 µM [inhibitor, full curve, poor fit]",–
Cc1cc(C)n(-c2nc(NCCCO)c3c4c(sc3n2)CCCC4)n1,"inconclusive: 35.5 µM [inhibitor, partial curve, poor fit]",–
CCN(CC)CC#CCC(O)(c1ccccc1)c1ccccc1,"inconclusive: 7.08 µM [inhibitor, partial curve, poor fit]",–
CC(=O)OCc1cnc(C)c2oc(=O)c(C(=O)Nc3cccc(F)c3)cc12,–,inactive: -9.58%
Cc1ccc(-n2ncc3c(NCCCN4CCOCC4)ncnc32)cc1Cl,"inconclusive: 0.447 µM [inhibitor, full curve, poor fit]",–

# Full records as entered above.
# O=c1[nH]c(-c2ccc(O)cc2)nc2scc(-c3cccs3)c12 in the list: activity change, negative = inhibition: inactive: -19.8%
# COc1cc(OC)c(NC(=O)CCCn2nc(C)c3sc4ccccc4c3c2=O)cc1Cl in the list: Potency: inconclusive: 31.6 µM [inhibitor, partial curve]
